{"sequences": {"note": "Protein sequences, listed by entry. Tags and fused reporters are not part of them. Residues count along the entry.", "UniProt P08962, 103-203": "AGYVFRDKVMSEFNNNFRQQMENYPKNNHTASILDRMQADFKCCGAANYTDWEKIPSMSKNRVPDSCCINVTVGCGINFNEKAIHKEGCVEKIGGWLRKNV"}, "source": "paper PMC7730289", "molecular_target": "CD63 large extracellular domain, recombinant (Homo sapiens) (UniProt P08962)", "assay": "ELISA", "details": "10 min 0.5 M NaCl after binding (Fig S2 legend prints 0.5 mM), PBS pH 7.4, 2.0 mM MgCl2, 0.02% Tween 20, 100 ug/mL salmon sperm DNA, ELISA 0.5 h, cells at RT 1 h (Methods) or 37 C 30 min (Results), commercial protein, residues 103-203, protein details: C-terminal His, single-stranded DNA", "note": "For at least one entry, the source does not settle the construct or the ends of the probe. Weaker means in comparison with the reference protein, sequence or condition of that experiment."}
{"sequence": "TAACACGACAGACGTTCGGAGGTCGAACCCTGACAGCGTGGGC [CD63-1]", "values": [{"measurement": "binding result", "setting": "label: 5' or 3' biotin (ELISA)", "result": "binds more weakly"}]}
{"sequence": "TAACCACCCCACCTCGCTCCCGTGACACTAATGCTAATTCCAA [CD63-2]", "values": [{"measurement": "binding result", "setting": "label: biotin (ELISA)", "result": "binds more weakly"}]}
